Publication PMC8140096
These are yes or no findings as the source states them, for the method shown. Some results given as binding are weak or reduced against the parent protein; the word gives no strength.

Sequences of proteins named here, by UniProt entry; tags and fusion partners are left off. Residues count along the entry.
UniProt Q38854, residues 59-717: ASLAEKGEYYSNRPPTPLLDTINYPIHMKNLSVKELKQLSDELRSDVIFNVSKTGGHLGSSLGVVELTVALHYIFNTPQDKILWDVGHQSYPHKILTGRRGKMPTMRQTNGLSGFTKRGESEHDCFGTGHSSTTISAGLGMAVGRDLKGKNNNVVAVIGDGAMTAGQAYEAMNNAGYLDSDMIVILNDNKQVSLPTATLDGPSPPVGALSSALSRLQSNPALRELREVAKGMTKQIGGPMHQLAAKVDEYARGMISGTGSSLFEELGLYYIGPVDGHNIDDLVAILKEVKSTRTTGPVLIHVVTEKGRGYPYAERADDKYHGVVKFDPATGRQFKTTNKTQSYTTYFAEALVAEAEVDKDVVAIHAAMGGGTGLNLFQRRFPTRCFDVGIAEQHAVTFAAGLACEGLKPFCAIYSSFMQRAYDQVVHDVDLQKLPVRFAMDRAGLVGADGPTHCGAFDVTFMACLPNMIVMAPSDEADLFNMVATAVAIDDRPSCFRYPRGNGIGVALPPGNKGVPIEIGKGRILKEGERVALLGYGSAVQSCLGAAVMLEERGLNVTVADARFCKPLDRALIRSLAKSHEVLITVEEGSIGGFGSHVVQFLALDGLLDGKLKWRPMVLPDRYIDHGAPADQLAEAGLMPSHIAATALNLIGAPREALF
UniProt P31170, residues 44-227: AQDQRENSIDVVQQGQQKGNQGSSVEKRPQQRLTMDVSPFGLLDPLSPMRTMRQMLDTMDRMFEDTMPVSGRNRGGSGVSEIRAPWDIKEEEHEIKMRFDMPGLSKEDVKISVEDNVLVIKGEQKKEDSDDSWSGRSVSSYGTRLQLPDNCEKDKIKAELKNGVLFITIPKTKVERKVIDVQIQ

Columns and labels:
[1] = biological target: Arabidopsis thaliana 1-deoxy-D-xylulose 5-phosphate synthase (59-717), C-terminal hexahistidine-FLAG tandem tag (Arabidopsis thaliana) (UniProt Q38854); assay: cryo-EM structure; His-Hsp21 and DXPS-His-FLAG co-expressed in E. coli at 37 °C, purified together (HisTrap, anti-FLAG), 0.7 mg/mL; 3D classification gave free DXPS (4.0 Å) and Hsp21-DXPS (3.7 Å); both purified
[2] = biological target: untagged version of Arabidopsis thaliana Hsp21 (Arabidopsis thaliana) (UniProt P31170); assay: cryo-EM structure; purified Hsp21 without substrate, 1 mg/mL; tetrahedral symmetry imposed, 4.6 Å; both purified

Row | binding [1] | binding [2] | Substance
1 | binds | – | Arabidopsis thaliana plastid small heat shock protein Hsp21 (44-227), N-terminal hexahistidine tag (from UniProt P31170 44-227)
2 | – | binds | untagged version of Arabidopsis thaliana Hsp21 (from UniProt P31170 44-227)
